Assay results: PubChem BioAssay AID2551 (National Center for Advancing Translational Sciences (NCATS), 2010)
About 17,000 (5.5%) of roughly 310,000 compounds were called active. Inconclusive results, whose numbers are uncertain, are shown with a selection of clear calls. Calls come from the whole dose curve; as a rule, active = well fitted inhibition curve with a large enough effect; inconclusive = small, poorly fitted or top-dose-only effect, or effect the other way; inactive = no such curve, though single readings can be large or run the other way. Where the call is inconclusive, the potency comes from a doubtful curve fit.

Protein sequences, listed by entry. Tags and fused reporters are not part of them. Lines headed by an entry give the natural chain unless they say otherwise; changes in a name come on top.
UniProt P51450: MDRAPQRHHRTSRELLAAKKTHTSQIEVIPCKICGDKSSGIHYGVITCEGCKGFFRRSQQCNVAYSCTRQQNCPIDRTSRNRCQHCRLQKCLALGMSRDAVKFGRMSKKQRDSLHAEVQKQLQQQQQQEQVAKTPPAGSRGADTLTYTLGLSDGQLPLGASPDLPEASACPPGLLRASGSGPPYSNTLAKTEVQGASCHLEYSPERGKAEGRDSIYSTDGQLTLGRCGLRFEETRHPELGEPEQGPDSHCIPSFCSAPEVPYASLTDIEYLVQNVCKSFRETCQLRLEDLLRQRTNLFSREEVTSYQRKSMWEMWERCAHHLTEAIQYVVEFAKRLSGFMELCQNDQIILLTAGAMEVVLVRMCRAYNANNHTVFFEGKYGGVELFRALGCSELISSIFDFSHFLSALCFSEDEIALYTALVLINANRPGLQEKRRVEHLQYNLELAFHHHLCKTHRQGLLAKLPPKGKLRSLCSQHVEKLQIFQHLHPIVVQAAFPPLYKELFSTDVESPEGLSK

The molecules below were run against Nuclear receptor ROR-gamma (Mus musculus) (UniProt P51450) (assay: qHTS for inhibitors of ROR gamma transcriptional activity). Conditions: Drosophila S2 Gal4-RORgamma UAS-luciferase reporter, 20 h; series mostly up to 53.6 µM.
In short: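 Schneider cells (Drosophila), stable Gal4 DBD–ROR gamma + UAS-luc; 1 hr cmpd preincubation; Cu2+ induction 700 uM final; 20 hr ambient; luminescence.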
Note: nearly all actives have a fitted effect of over 60% in size.
Potency is the fitted concentration of half-maximal effect.

How did the Potency turn out when `CCOC(=O)c1sc(-c2ccccc2)cc1NC(=O)Nc1ccc([N+](=O)[O-])cc1` was run?
The Potency was “inactive”.

`CC1Sc2n(c3ccccc3[n+]2C)N=C1c1ccccc1` (centres undefined) was tested. Which Potency did it give?
The Potency was inconclusive: 10 µM [activator, partial curve, poor fit].

`O=C(CSc1nc2ccccc2[nH]1)Nc1nc(-c2ccc(Br)cc2)cs1` was tested. Which Potency did it give?
Its Potency is inconclusive: 22.4 µM [activator, single point].

Which Potency does the source give for `CSc1ccc(CN(C)Cc2nc3ccccc3c(=O)[nH]2)cc1` here?
The Potency was inconclusive: 31.6 µM [inhibitor, single point].

`CCn1c(SCc2c(F)cccc2Cl)nnc1-c1ccco1` was tested. Which Potency did it give?
The Potency was inconclusive: 12.6 µM [activator, single point].

How did the Potency turn out when `CC(=O)Nc1ccc(OCC(O)Cn2nc(C)c(Br)c2C)cc1` (centres undefined) was run?
The Potency was inconclusive: 31.6 µM [activator, single point].

`CC(C)OC(=S)N/C(=N\S(=O)(=O)c1ccccc1)c1ccccc1` was tested. Which Potency did it give?
Its Potency is active: 0.447 µM.

`O=[N+]([O-])c1ccc(-c2ccn[nH]2)o1` was tested. Which Potency did it give?
The Potency was inconclusive: 6.31 µM [activator, single point].

With `CC(C)c1ccc(C(CC(=O)c2ccc(Cl)cc2)C(=O)O)cc1` (centres undefined) as the molecule, how does the Potency read?
Its Potency is inconclusive: 35.5 µM [activator, single point].

Which Potency does the source give for `Cc1cccc(N2CC(C(=O)Nc3nnc(SCCC4OCCO4)s3)CC2=O)c1` (centres undefined) here?
The Potency was “inactive”.

`NC(=O)n1c(O)c(C(=O)c2cccs2)c2cc(Cl)ccc21` was tested. Which Potency did it give?
The Potency was “inactive”.

How did the Potency turn out when `Cc1nn(-c2ccccc2)c2sc(C(=O)NNC(=O)COc3cccc4ccccc34)cc12` was run?
The Potency was active: 8.91 µM.

For `CCCCCCN1C=CC=C/C1=C/C=C(C#N)C#N`, which Potency is on record?
Its Potency is inconclusive: 12.6 µM [activator, partial curve].

`Cn1c(SCc2nc3ccccc3n2CCO)nc2ccccc21` was tested. Which Potency did it give?
Its Potency is inconclusive: 20 µM [inhibitor, single point].

With `CC(C)(C)C(=O)[C@@H]1[C@@H]2C(=O)N(c3ccc4c(c3)OCCO4)C(=O)[C@@H]2C2c3ccccc3C=CN21` (some centres undefined) as the molecule, how does the Potency read?
Its Potency is inconclusive: 35.5 µM [inhibitor, single point].

For `COc1ccccc1NC(=O)CCCC(=O)OC(C)C(=O)c1ccccc1` (centres undefined), which Potency is on record?
The Potency was inconclusive: 35.5 µM [activator, single point].

How did the Potency turn out when `C/C(=N\NC(=S)NCc1ccccc1)c1ccc2ccccc2c1` was run?
The Potency was active: 2.51 µM.

Which Potency does the source give for `CCc1ccc(/C=C2\Oc3c(ccc(O)c3CN3CCN(C)CC3)C2=O)cc1` here?
Its Potency is inconclusive: 0.891 µM [inhibitor, partial curve, poor fit].

With `CCOC(=O)c1[nH]cnc1C(=O)Nc1ccc(Cl)cc1` as the molecule, how does the Potency read?
Its Potency is inconclusive: 17.8 µM [inhibitor, single point].

For `COc1cccc(-c2nc(-c3ccc(Br)o3)no2)c1`, which Potency is on record?
The Potency was inconclusive: 11.2 µM [inhibitor, single point].

`Cc1ccsc1C(=O)Nc1ccc2c(c1)OCCO2` was tested. Which Potency did it give?
The Potency was inconclusive: 15.8 µM [inhibitor, single point].

With `CCOc1ccccc1N1CCN(C(=O)Nc2ccc(F)c(Cl)c2)CC1` as the molecule, how does the Potency read?
The Potency was “inactive”.

For `CN(C)CCNC(=O)/C(=C/c1ccc(-c2ccc(Cl)cc2)o1)NC(=O)c1ccccc1`, which Potency is on record?
Its Potency is inconclusive: 25.1 µM [inhibitor, single point].

Which Potency does the source give for `O=C(CCl)N1N=C(c2ccco2)CC1c1cccs1` (centres undefined) here?
Its Potency is active: 10 µM.

For `CCOC(=O)c1c(C)n(C)c2c(C)cc(O)c(OC(=O)CC)c12`, which Potency is on record?
The Potency was “inactive”.

How did the Potency turn out when `Cc1ccc(-c2nnn(CC(=O)Nc3ccc(S(=O)(=O)N4CCC(C)CC4)cc3)n2)cc1` was run?
The Potency was inconclusive: 35.5 µM [inhibitor, single point].

With `COC(=O)[C@@H](Cc1c[nH]c2ccccc12)NC(=O)c1ccc2c(c1)OCO2` as the molecule, how does the Potency read?
The Potency was active: 8.91 µM.

For `CCCCCN(CCCCC)C(=O)C(CCC(=O)O)NC(=O)c1ccc(Cl)c(Cl)c1` (centres undefined), which Potency is on record?
Its Potency is “inactive”.

`O=C(C1CCC(=O)N(C2CC2)C1)N1CCN(c2ccc(Cl)cc2)CC1` (centres undefined) was tested. Which Potency did it give?
The Potency was inconclusive: 12.6 µM [activator, single point].

Which Potency does the source give for `CC(=O)Nc1ccc(S(=O)(=O)Nc2ccc(C)c([N+](=O)[O-])c2)cc1` here?
The Potency was inconclusive: 12.6 µM [activator, partial curve].

Which Potency does the source give for `O=C(CN(Cc1ccco1)C(=O)Cn1nnc(-c2cccs2)n1)NCc1ccccc1` here?
The Potency was inconclusive: 5.01 µM [activator, partial curve].

With `Cc1cc(C)c2sc(NC(=O)C3CC3)nc2c1` as the molecule, how does the Potency read?
The Potency was active: 6.31 µM.

How did the Potency turn out when `CC(=O)c1ccc(Cl)c(Cl)c1Cl` was run?
The Potency was “inactive”.

Which Potency does the source give for `CC(C)C[C@H](NC(=O)c1[nH]cnc1C(=O)Nc1ccccc1)C(=O)OC(C)(C)C` here?
The Potency was active: 5.01 µM.

For `CCCc1ccc(OCC(=O)Nc2cc(S(=O)(=O)CC)ccc2O)cc1`, which Potency is on record?
The Potency was inconclusive: 31.6 µM [activator, single point].

How did the Potency turn out when `COC(=O)c1ccc(N2C(=O)CC(N3CCOCC3)C2=O)cc1` (centres undefined) was run?
The Potency was “inactive”.

Which Potency does the source give for `Cc1cc(SCNC(=O)c2ccccc2)nc(C(C)C)n1` here?
Its Potency is active: 12.6 µM.

How did the Potency turn out when `CCNC(=O)CSc1nc2cc(S(=O)(=O)Nc3ccc(OC)cc3)ccc2o1` was run?
Its Potency is inconclusive: 22.4 µM [activator, single point].

Which Potency does the source give for `CCCN1CCN(CCCNC(=S)Nc2ccc(F)cc2)CC1` here?
The Potency was inconclusive: 0.708 µM [inhibitor, single point].

Which Potency does the source give for `N#CC1=C(N)NC(SCC(=O)c2ccc(Br)cc2)=C(C#N)C12CCCCC2` here?
Its Potency is inconclusive: 15.8 µM [inhibitor, single point].

Which Potency does the source give for `Cc1nn(CCO)c2nc(-c3cccs3)cc(C(F)(F)F)c12` here?
The Potency was inconclusive: 5.01 µM [activator, partial curve, poor fit].

`COc1ccc(C(=O)Nn2c(SCC(=O)NCC3CCCO3)nc3ccccc3c2=O)cc1` (centres undefined) was tested. Which Potency did it give?
The Potency was active: 7.08 µM.

With `O=C(/C=C/c1ccc(S(=O)(=O)N2CCOCC2)cc1)NCc1ccc(Cl)cc1` as the molecule, how does the Potency read?
Its Potency is inconclusive: 12.6 µM [activator, partial curve].

With `O=C(O)c1ccc(-c2ccc(OS(=O)(=O)c3ccccc3F)cc2)cc1` as the molecule, how does the Potency read?
Its Potency is inconclusive: 6.31 µM [activator, partial curve].

With `COc1ccc(-c2ccc(C3C(C#N)=C(N)Oc4n[nH]c(C)c43)o2)cc1` (centres undefined) as the molecule, how does the Potency read?
Its Potency is inconclusive: 31.6 µM [inhibitor, single point].

For `COc1cccc(-c2nn(C)c3sc(C(=O)N4CCOCC4)cc23)c1`, which Potency is on record?
The Potency was inconclusive: 35.5 µM [activator, single point].

Which Potency does the source give for `S=c1nc(NCc2cccc(Cl)c2)c2ccccc2[nH]1` here?
The Potency was active: 3.98 µM.

Which Potency does the source give for `CCOc1ccc(N2C(=O)CC(N(C)Cc3ccccc3)C2=O)cc1` (centres undefined) here?
Its Potency is inconclusive: 15.8 µM [activator, partial curve].

Which Potency does the source give for `CC(C)C(=O)OCC(=O)[C@@]12OC(C3CCCCC3)O[C@@H]1CC1C3CCC4=CC(=O)C=C[C@]4(C)C3[C@@H](O)C[C@@]12C` (some centres undefined) here?
Its Potency is inconclusive: 1.41 µM [inhibitor, partial curve, poor fit].

For `CC(C)c1ccc(NC(=O)COC(=O)c2c[nH]c(=O)[nH]c2=O)cc1`, which Potency is on record?
The Potency was inconclusive: 11.2 µM [activator, single point].

How did the Potency turn out when `COc1cc(OC)cc(C(=O)N[C@H](C(=O)OCC(=O)NC(C)c2ccccc2)C(C)C)c1` (some centres undefined) was run?
Its Potency is inconclusive: 1.41 µM [activator, full curve].

Which Potency does the source give for `COc1ccc(-c2nnc(CSc3nc4ccccc4c(=O)n3CC3CCCO3)o2)cc1OC` (centres undefined) here?
The Potency was “inactive”.

With `O=C(Nc1cccc(-c2csc(Nc3ccc(Cl)cc3)n2)c1)c1cccc(C(F)(F)F)c1` as the molecule, how does the Potency read?
The Potency was inconclusive: 17.8 µM [activator, single point].

For `O=C(N/N=C\c1c(O)ccc2ccccc12)c1ccc(S(=O)(=O)N2CCCCC2)cc1`, which Potency is on record?
Its Potency is active: 2.51 µM.

For `COc1ccc(C(C)=O)cc1COC(=O)CNC(=O)c1ccc(Cl)cc1`, which Potency is on record?
The Potency was inconclusive: 6.31 µM [activator, partial curve, poor fit].

`C=C(Nc1ccc(OC)cc1)C(=O)OC` was tested. Which Potency did it give?
Its Potency is “inactive”.

For `COc1cc(/C=N/N=C(/N)c2nonc2N)cc(Br)c1OCc1cccc(C)c1`, which Potency is on record?
Its Potency is “inactive”.

`O=C(CCn1c(=S)[nH]c2cc3c(cc2c1=O)OCO3)NCc1cccc(Cl)c1` was tested. Which Potency did it give?
The Potency was inconclusive: 25.1 µM [inhibitor, single point].

How did the Potency turn out when `[O-]/C(=C(\C(=S)Nc1cccc2ccccc12)[n+]1ccccc1)c1ccc2c(c1)OCCO2` was run?
Its Potency is active: 12.6 µM.

`COc1ccc(N2CCC(CNS(=O)(=O)c3cccc(C(F)(F)F)c3)C2)cc1` (centres undefined) was tested. Which Potency did it give?
The Potency was “inactive”.

With `Nc1ccc(O)cc1` as the molecule, how does the Potency read?
The Potency was inconclusive: 17.8 µM [inhibitor, single point].

For `Cc1cnc(CN2CCCC(C(=O)c3ccc4c5c(cccc35)CC4)C2)[nH]1` (centres undefined), which Potency is on record?
Its Potency is active: 11.2 µM.

`O=C1C2CCCCC2C(=O)N1c1ccc(NC2CCN(Cc3ccccc3)CC2)c([N+](=O)[O-])c1` (centres undefined) was tested. Which Potency did it give?
The Potency was “inactive”.

With `Cc1c(Br)c(C(=O)NCc2cc3cc(Cl)ccc3[nH]2)nn1C` as the molecule, how does the Potency read?
Its Potency is inconclusive: 25.1 µM [activator, single point].

With `O=C(NCCCN1CCOCC1)c1ccc2c(c1)N(Cc1c(F)cccc1Cl)C(=O)c1ccccc1S2` as the molecule, how does the Potency read?
The Potency was inconclusive: 22.4 µM [inhibitor, single point].

Which Potency does the source give for `CC(C)c1ccc2[nH]c(O)c(N=NC(=O)c3cccc(S(=O)(=O)N4CCCCC4)c3)c2c1` here?
Its Potency is inconclusive: 3.16 µM [activator, full curve, poor fit].

How did the Potency turn out when `COc1ccc(C(=O)NCCNc2nc3ccc(C)cc3cc2C#N)cc1` was run?
Its Potency is inconclusive: 35.5 µM [inhibitor, single point].

With `COc1cccc(C(=O)Nc2cc(NC(=O)c3cccs3)ccc2C)c1OC` as the molecule, how does the Potency read?
Its Potency is “inactive”.

How did the Potency turn out when `COCCN(C(=O)CCC(=O)Nc1ccccn1)C(C(=O)NC(C)C)c1ccc(C)cc1` (centres undefined) was run?
The Potency was inconclusive: 10 µM [inhibitor, partial curve, poor fit].
